Data published in paper PMC3795685.
These are yes or no findings as the source states them, for the method shown. Binding seen in cells or lysates may run through a third protein. Binding calls can cover weak binding; strength is not graded here. Sequences can lack the tags named with a protein.

Target: T1, TAP-tagged wild-type Infected Cell Polypeptide 4 (ICP4) of HSV-1 strain KOS (herpes simplex virus type 1 (HSV-1), strain KOS) (UniProt P08392)
T1 sequence: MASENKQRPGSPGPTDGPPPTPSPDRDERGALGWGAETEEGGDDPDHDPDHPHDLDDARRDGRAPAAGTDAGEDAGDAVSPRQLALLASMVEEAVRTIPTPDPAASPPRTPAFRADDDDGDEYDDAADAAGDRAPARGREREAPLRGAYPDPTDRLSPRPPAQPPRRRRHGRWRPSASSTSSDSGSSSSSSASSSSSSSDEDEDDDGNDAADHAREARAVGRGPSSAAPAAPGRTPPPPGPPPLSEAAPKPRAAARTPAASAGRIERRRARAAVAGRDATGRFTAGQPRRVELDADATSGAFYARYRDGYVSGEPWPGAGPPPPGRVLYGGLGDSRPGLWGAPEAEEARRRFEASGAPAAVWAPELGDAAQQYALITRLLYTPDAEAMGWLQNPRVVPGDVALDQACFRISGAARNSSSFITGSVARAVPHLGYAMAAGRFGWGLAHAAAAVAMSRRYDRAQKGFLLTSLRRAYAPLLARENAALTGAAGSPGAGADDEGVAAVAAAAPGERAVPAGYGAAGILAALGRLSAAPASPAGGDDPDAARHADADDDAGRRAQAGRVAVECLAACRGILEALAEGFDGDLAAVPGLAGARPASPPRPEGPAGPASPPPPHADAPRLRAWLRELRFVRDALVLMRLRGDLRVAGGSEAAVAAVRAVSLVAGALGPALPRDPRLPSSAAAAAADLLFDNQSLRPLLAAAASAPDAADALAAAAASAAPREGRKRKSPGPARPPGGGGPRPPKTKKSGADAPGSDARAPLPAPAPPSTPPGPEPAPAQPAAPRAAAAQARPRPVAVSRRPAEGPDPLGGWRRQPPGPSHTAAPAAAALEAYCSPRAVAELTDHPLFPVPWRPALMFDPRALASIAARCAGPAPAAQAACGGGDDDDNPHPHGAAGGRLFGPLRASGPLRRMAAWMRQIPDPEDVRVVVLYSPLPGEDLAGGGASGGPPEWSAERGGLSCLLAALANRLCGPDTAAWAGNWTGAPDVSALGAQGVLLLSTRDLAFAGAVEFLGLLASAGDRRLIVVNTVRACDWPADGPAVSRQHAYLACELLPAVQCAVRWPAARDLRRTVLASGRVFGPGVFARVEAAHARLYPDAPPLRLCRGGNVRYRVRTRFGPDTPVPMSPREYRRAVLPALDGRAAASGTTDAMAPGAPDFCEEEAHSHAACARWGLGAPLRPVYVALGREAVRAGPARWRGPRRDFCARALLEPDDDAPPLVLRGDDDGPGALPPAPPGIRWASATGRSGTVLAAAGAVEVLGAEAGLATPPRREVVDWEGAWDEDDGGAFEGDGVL
Assay: pull-down; streptavidin affinity purification of TAP-tagged ICP4 from nuclear extracts of infected Vero cells (3 or 6 hpi), independent samples; biotin eluates analysed by Western blot, in part quantified with a LI-COR Odyssey imager and normalised to ICP4; untagged virus as control

Substance	binding
MED23	binds
XPD	binds
MED6	binds
CPSF2	binds
MED12	binds
CHD3	binds
cyclin dependent kinase (CDK) 8	binds
MED1	binds
Brahma	binds
RUVBL2	binds
Med26	no binding
CPSF7	binds
RUVBL1	binds
MED13	binds
